Reference: PubChem BioAssay AID2685 (National Center for Advancing Translational Sciences (NCATS), 2010)
The other results are listed elsewhere or left out. The main result of the screen is listed elsewhere. These columns were measured beside it and carry no call. Most of these compounds were active or inconclusive in the main read-out, so they are no random draw. The note in brackets gives the kind of curve behind each potency; many fits are weak.

Test: qHTS Assay for Lipid Storage Modulators in Drosophila S3 Cells;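 as to cell number change: cells counted by Cell Tracker Red CMTPX staining in the red channel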
Details: BODIPY lipid droplet fluorescence, 18-24 h; for cell number change: measured here: cell count max response, cells fed with added oleic acid
How it was run: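 Drosophila S3 cells got compounds at several concentrations plus oleic acid (400 uM solution). Laser-scanning cytometry with 488 nm excitation read lipid droplets at 500-530 nm and cells at 575-640 nm. Percent activity was relative to 20 uM Triacsin C.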

[1] = measured here: cell number channel AC50, cells fed with added oleic acid
[2] = measured here: lipid fluorescence (Fed channel) AC50, cells fed with added oleic acid

| SMILES | cell number change [%] | AC50 [1] | AC50 [2] |
| --- | --- | --- | --- |
| CN(C)C1=NCCN1CCCCc1ccccc1 | 14.8 | – | – |
| CCN(CC)S(=O)(=O)c1cccc(NC(=O)COC(=O)c2cc(C)oc2C)c1 | 77.5 | 16.4 µM [rising, partial curve] | 16.4 µM [rising, partial curve] |
| N#CC1=C(SCc2ccccc2)NC(=O)CC1c1ccco1 (centres undefined) | -12.1 | – | 0.092 µM [falling, full curve, poor fit] |
| Cc1cc(C(=O)COC(=O)c2ccc(F)cc2F)c(C)n1C1CC1 | -0.376 | – | 29.1 µM [falling, single point] |
| CCCOc1ccc(Cn2cnc3ccccc32)cc1 | -31.7 | 13 µM [falling, single point] | 18.4 µM [falling, single point] |
| CCC(C)n1c(-c2ccco2)nc2nc3ccccc3nc21 (centres undefined) | -15.8 | – | – |
| CCOc1ccc(CN(C(=O)c2oc3ccccc3c2C)C2CCS(=O)(=O)C2)cc1 (centres undefined) | -9.96 | – | – |
| CCC(CC)c1nnc(NC(=O)CCS(=O)(=O)Cc2ccccc2)s1 | 15.4 | – | – |
| COC(=O)N(C)c1nc2ccccc2s1 | -16.7 | – | 2.91 µM [rising, single point] |
| CCn1c(CNc2ccc(F)cc2)nnc1SCCN1CCCCC1 | 0.14 | – | 0.00651 µM [falling, full curve, poor fit] |
| CSC1=NC(C)(C)C=C(/C=C/c2c(Cl)cccc2Cl)N1 | -4.04 | – | – |
| Cc1ccc2nc(-c3ccc(NC(=O)COC(=O)c4ccc(Br)o4)cc3)sc2c1 | 14.3 | – | 11.6 µM [rising, partial curve, poor fit] |
| Cc1cc(OCCN2CCOCC2)ccc1Cl | 8.45 | – | 0.731 µM [falling, full curve, poor fit] |
| CCc1sc(C(=O)NCCc2ccc(S(N)(=O)=O)cc2)cc1Br | 20.4 | 6.51 µM [rising, single point] | 0.58 µM [falling, single point] |
| CN=c1scc(C)n1/N=C/c1ccc(O)cc1O | -22.7 | – | 29.1 µM [falling, single point] |
| Cc1cc(C(=O)CSc2ncn[nH]2)c(C)n1-c1cccc(S(=O)(=O)N2CCOCC2)c1 | -15.8 | – | 13 µM [falling, partial curve] |
| COC(=O)c1cn(Cc2cccnc2)c(=O)c2ccccc12 | 11.5 | – | 0.58 µM [rising, single point] |
| O=C(Oc1cccc(/C=N/Nc2nc(N3CCOCC3)nc(N3CCOCC3)n2)c1)c1ccco1 | -41.6 | 18.4 µM [falling, partial curve, poor fit] | 29.1 µM [falling, partial curve] |
| Cc1ccccc1-n1nc2c(c1NC(=O)COc1ccc(Cl)cc1)CS(=O)C2 (centres undefined) | -3.04 | – | – |
| CCCc1ccc(C#N)c(SC2CC(=O)N(c3ccc(OC)cc3)C2=O)n1 (centres undefined) | 30.9 | – | 4.11 µM [rising, single point] |
| C/C(=N\NC(=O)c1c(Br)c(C)nn1C)c1cccc(NC(=O)c2ccccc2C)c1 | 8.12 | – | 16.4 µM [rising, partial curve] |

| SMILES | cell number change [%] | AC50 [1] | AC50 [2] |
| --- | --- | --- | --- |
| CCOc1cc(C(=O)Nc2ccc(S(=O)(=O)N3CCOCC3)cc2)cc(OCC)c1OCC | 1.63 | – | – |
| CCn1nnc2cc(C(=O)O)ccc21 | 32.4 | – | – |
| COc1ccc(CNCCNC(=O)c2ccco2)c(OC)c1OC | -8.19 | 1.16 µM [falling, full curve, poor fit] | – |
| O=c1[nH]cnc2cc(-c3ccc(Br)cc3)sc12 | -21 | – | 29.1 µM [rising, single point] |
| Cc1ccc(CC(SCc2ccccc2)C(=O)O)cc1C (centres undefined) | 23.1 | – | – |
| COc1ccccc1NC(=O)c1cccc(S(=O)(=O)N2CCOCC2)c1 | -6.95 | – | – |
| O=S(=O)(Nc1ccc2c(c1)OCO2)c1ccc(F)c(F)c1 | -49.1 | 29.1 µM [falling, single point] | 29.1 µM [falling, single point] |
| Nc1nonc1C(=O)N1CCCC1 | -27.8 | – | 29.1 µM [falling, single point] |
| C=CCNC(=O)c1onc(CSc2ccc(F)cc2)c1C(=O)NCC=C | 6.53 | – | 6.51 µM [rising, single point] |
| C/C(=N/NC(=O)c1ccc(Br)s1)c1ccncc1 | 48.5 | 23.1 µM [rising, partial curve, poor fit] | – |
| CCOc1cc(CNCCc2ccc(S(N)(=O)=O)cc2)ccc1OCC(=O)NC1CCCCC1 | – | – | 1.3 µM [falling, full curve] |
| C[C@H](NS(=O)(=O)c1ccc(Cl)cc1)C(=O)OCC(=O)NC(=O)Nc1ccc2c(c1)OCCO2 | 51.2 | 3.66 µM [rising, partial curve] | 1.64 µM [rising, partial curve] |
| CCOC(=O)C(Cc1ccccc1)NC(=O)CCCC(=O)c1ccccc1 (centres undefined) | -28.8 | – | – |
| CCOC(=O)Nc1c(C(=O)OC)[nH]c2cc(OC)ccc12 | 37.8 | 3.26 µM [rising, full curve] | 7.31 µM [rising, partial curve] |
| CC1(C)Cc2c(sc3c2c(=O)n(Cc2ccccc2)c2nncn32)CO1 | -0.673 | – | – |
| CC(=O)Nc1ccc(SCCN2CC[C@@H](O)CCC2=O)cc1 | -44.4 | 18.4 µM [falling, single point] | – |
| CCc1ccccc1NC(=S)NNC(=O)c1ccccc1Cl | 21.7 | – | – |
| Cc1cc2nc(C(F)(F)F)[nH]c(=O)n2n1 | -1.3 | – | 0.116 µM [falling, full curve, poor fit] |
| O=C(O)C1CCN(c2ccc(S(=O)(=O)N3CCCCC3)cc2[N+](=O)[O-])CC1 | -6.4 | – | – |
| O=C(/C=C/c1ccc([N+](=O)[O-])cc1)Nc1cccnc1 | 55.7 | 29.1 µM [rising, single point] | – |
| COc1cccc(NC(=S)NC2CC(C)(C)NC(C)(C)C2)c1 | -8.55 | – | 29.1 µM [rising, single point] |

Taken from above.
Entry of C=CCNC(=O)c1onc(CSc2ccc(F)cc2)c1C(=O)NCC=C under AC50 [2]: 6.51 µM [rising, single point]
Entry of CC1(C)Cc2c(sc3c2c(=O)n(Cc2ccccc2)c2nncn32)CO1 under cell number change [%]: -0.673
Entry of COc1cccc(NC(=S)NC2CC(C)(C)NC(C)(C)C2)c1 under cell number change [%]: -8.55

(cont.)

| SMILES | cell number change [%] | AC50 [1] | AC50 [2] |
| --- | --- | --- | --- |
| S=C(NCCc1ccccc1)Nc1ccccc1N1CCOCC1 | 4.31 | 0.291 µM [falling, single point] | 6.51 µM [falling, partial curve, poor fit] |
| Cc1ccc(C)c(N2CCN(C(=O)CCS(=O)(=O)c3ccc4c(c3)NC(=O)C(C)S4)CC2)c1 (centres undefined) | -43.5 | 32.6 µM [falling, single point] | 18.4 µM [falling, single point] |
| CCOC(=O)c1ccc(NC(=S)N(CCCN2CCN(C)CC2)Cc2cccs2)cc1 | – | 1.64 µM [rising, partial curve] | 29.1 µM [rising, single point] |
| Cc1ccc(C(=O)NCCc2ccccc2)cc1N1CCCC1=O | 5.9 | – | 1.84 µM [rising, partial curve] |
| CCOC(=O)/C=C/C(=O)OCC(=O)Nc1ccc(C)cc1 | 7.45 | 0.82 µM [falling, single point] | – |
| O=C(Nc1ccc(Cl)c(Cl)c1)N1CC=C(c2ccccc2)CC1 | 11.5 | – | 11.6 µM [falling, partial curve] |
| CCOc1ccc(C(=O)NCC(c2ccco2)N2CCc3ccccc3C2)cc1 (centres undefined) | 27.3 | 1.3 µM [rising, full curve, poor fit] | – |
| CC1CN(C(=O)COC(=O)c2ccc(C#N)cc2)CC(C)O1 (centres undefined) | 25.6 | – | 29.1 µM [rising, partial curve, poor fit] |
| Cc1ccccc1CN1CCC(N2CCC(C(=O)NCC3CCCO3)CC2)CC1 (centres undefined) | 12.4 | – | 29.1 µM [rising, single point] |
| O=C(C1CCC(=O)N1Cc1ccccc1Cl)N1CCN(c2ccc(F)cc2)CC1 (centres undefined) | 22.3 | – | – |
| Cc1ccc(NS(=O)(=O)c2c(C)[nH]c(C)c2C(=O)N2CCCCC2)c(Cl)c1 | -8.55 | – | 20.6 µM [falling, single point] |
| Cc1cc(C(=O)N2CCCC(C(=O)c3ccc(Cl)cc3C)C2)no1 (centres undefined) | -5.78 | – | – |
| O=C1NC(c2cccnc2)C(C(=O)c2cccs2)C(O)(C(F)(F)F)N1 (centres undefined) | 46.7 | 2.06 µM [rising, full curve, poor fit] | 2.06 µM [rising, partial curve] |
| CCN(CC)c1ccc(/C=N/N2CCN(Cc3ccccc3)CC2)c(O)c1 | -25.6 | – | 29.1 µM [falling, single point] |
| COc1ccc(-c2cc(CNC(=O)CN3CCN(C)CC3)on2)cc1 | – | – | 20.6 µM [falling, partial curve] |
| COc1ccc(OC(C)C(=O)Nc2ccc(F)cc2F)cc1 (centres undefined) | 30 | – | 32.6 µM [rising, single point] |
| O=C(Nc1ccc(Cl)c([N+](=O)[O-])c1)c1ccc(NCCCN2CCOCC2)c([N+](=O)[O-])c1 | -59.9 | 7.31 µM [falling, partial curve] | 11.6 µM [falling, partial curve] |
| COc1ccc(NC(=O)c2cc3c(CO)cnc(C)c3oc2=Nc2cccc(F)c2)c(OC)c1 | -26.1 | – | 0.651 µM [falling, full curve] |
| C/C(=N\OCC(=O)N/N=C/c1ccccc1O)c1cccs1 | 46.3 | 16.4 µM [rising, partial curve] | 20.6 µM [rising, partial curve] |
| Cc1onc(-c2ccccc2)c1C(=O)Nc1ccccc1N1CCOCC1 | – | – | 0.58 µM [rising, single point] |
| c1ccc(N2OCC3Cn4c(nc5ccccc54)C32)cc1 (centres undefined) | 10.5 | – | 20.6 µM [rising, partial curve] |
